Laboratory results: paper PMC10227007
Results are given in words; binding and its absence hold for the method and conditions named. For some of these results: Binding calls can cover weak binding; strength is not graded here. For some of these results: In cells and extracts the contact can be indirect. For some of these results: Where a sequence is shown, tags or fusion partners need not be part of it.

Experiments:
[1] = molecular target: T1, OsSERK1, bait from pBT3-STE (Oryza sativa japonica cv. Zhonghua 11 (ZH11)) (UniProt Q6Z4U4); experiment: two-hybrid; split-ubiquitin membrane yeast two-hybrid (DUALmembrane system): pBT3-STE-OsSERK/SERLs and pPR3-N-COG1 in yeast strain NMY51
T1 sequence: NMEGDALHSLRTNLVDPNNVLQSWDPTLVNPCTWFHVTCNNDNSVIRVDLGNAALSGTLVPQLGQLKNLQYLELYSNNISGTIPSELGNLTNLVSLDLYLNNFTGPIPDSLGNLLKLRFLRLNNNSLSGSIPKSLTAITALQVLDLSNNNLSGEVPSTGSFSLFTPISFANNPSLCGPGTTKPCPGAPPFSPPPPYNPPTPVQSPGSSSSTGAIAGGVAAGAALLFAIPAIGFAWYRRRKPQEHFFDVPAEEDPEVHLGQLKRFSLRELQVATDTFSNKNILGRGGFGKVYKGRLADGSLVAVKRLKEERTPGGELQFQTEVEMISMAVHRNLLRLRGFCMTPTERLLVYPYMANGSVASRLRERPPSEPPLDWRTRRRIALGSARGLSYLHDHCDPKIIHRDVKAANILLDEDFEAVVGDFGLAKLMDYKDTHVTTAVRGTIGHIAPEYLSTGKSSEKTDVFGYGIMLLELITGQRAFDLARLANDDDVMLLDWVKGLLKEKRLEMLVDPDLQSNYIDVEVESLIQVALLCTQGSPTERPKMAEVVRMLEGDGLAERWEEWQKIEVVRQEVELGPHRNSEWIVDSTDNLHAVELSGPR

[2] = molecular target: T2, OsSERK2, bait from pBT3-STE (Oryza sativa japonica cv. Zhonghua 11 (ZH11)) (UniProt Q7XV05); experiment: as above
T2 sequence: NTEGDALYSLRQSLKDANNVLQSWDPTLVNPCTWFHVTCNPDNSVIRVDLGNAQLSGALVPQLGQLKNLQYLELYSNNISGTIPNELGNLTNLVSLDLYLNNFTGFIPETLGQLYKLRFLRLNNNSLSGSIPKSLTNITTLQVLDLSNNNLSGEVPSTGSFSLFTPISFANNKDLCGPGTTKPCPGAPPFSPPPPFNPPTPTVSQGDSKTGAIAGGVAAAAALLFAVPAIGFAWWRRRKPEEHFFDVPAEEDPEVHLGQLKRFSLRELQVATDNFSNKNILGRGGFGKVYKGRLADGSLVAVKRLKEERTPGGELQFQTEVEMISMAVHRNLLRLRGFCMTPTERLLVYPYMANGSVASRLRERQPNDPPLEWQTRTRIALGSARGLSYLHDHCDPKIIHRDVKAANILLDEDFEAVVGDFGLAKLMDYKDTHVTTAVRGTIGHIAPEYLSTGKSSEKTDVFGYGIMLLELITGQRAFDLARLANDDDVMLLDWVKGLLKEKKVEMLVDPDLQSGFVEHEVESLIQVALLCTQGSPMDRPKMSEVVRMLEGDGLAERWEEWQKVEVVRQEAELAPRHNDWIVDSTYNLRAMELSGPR

[3] = molecular target: T3, OsSERK2-cCFP (Oryza sativa japonica cv. Zhonghua 11 (ZH11)) (UniProt Q7XV05); experiment: split reporter; BiFC in rice protoplasts, nVenus and cCFP fusions co-expressed, YFP fluorescence by confocal microscopy (Leica TCS SP5); in one experiment the protoplasts were kept at 28 °C or 4 °C for 24 h and the intensity measured by Image J
T3 sequence: T2 sequence

[4] = molecular target: T4, OsSERK1-cCFP (Oryza sativa japonica cv. Zhonghua 11 (ZH11)) (UniProt Q6Z4U4); experiment: as above
T4 sequence: T1 sequence

Row | binding [1] | binding [2] | binding [3] | binding [4] | Substance
1 | binds | binds | – | – | COG1 (Chilling-tolerance in Gengdao/japonica rice 1), prey from pPR3-N-COG1 (receptor)
2 | – | – | no binding | no binding | COG1-nVenus (receptor)
